Measured values from patent US20210087226 (published 2021).

Assay: general procedure: Fmoc solid-phase peptide synthesis; Rink Amide MBHA resin; HOBt/DIC
Conditions: whole synthesis, 220 nm, acetate

vasopressin
final HPLC purity (run 1): 99.56% | final HPLC purity (run 2): 99.62% | final HPLC purity (run 3): 99.52% | crude HPLC purity (run 1): 73.63% | crude HPLC purity (run 2): 75.23% | crude HPLC purity (run 3): 75.66%
